This is an account of results in paper PMC12588913.

Protein sequences, listed by entry. Tags and fused reporters are not part of them. Residues count along the entry.
UniProt P06733: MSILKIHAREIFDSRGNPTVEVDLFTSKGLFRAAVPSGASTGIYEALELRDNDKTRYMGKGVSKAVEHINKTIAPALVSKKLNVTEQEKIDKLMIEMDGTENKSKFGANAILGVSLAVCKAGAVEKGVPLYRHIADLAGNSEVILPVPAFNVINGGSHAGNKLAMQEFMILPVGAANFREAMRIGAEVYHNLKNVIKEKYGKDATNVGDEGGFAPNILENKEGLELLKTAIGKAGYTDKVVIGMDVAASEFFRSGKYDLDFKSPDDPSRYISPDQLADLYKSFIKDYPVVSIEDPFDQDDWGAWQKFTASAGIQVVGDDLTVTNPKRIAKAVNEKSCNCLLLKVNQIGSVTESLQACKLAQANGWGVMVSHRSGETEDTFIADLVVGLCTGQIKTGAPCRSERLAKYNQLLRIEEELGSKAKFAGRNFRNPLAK
UniProt O14744: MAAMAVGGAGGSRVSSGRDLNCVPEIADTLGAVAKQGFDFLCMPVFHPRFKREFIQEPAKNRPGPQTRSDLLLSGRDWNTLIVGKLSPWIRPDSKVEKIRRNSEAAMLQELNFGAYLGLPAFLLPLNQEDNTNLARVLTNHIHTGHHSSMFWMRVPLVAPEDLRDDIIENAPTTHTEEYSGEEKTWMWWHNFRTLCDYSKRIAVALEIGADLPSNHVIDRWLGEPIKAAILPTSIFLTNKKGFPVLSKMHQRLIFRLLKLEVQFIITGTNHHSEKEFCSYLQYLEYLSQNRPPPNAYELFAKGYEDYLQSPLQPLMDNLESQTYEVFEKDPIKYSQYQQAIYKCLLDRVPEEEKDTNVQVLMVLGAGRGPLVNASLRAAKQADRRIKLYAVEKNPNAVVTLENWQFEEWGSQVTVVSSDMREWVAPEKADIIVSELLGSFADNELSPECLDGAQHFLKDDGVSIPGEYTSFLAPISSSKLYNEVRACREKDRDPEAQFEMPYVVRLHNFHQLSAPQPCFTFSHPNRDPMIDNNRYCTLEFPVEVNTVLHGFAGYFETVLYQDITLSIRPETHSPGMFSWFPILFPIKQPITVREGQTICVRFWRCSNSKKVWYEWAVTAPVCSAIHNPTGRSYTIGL
UniProt O75197, residues 32-1615: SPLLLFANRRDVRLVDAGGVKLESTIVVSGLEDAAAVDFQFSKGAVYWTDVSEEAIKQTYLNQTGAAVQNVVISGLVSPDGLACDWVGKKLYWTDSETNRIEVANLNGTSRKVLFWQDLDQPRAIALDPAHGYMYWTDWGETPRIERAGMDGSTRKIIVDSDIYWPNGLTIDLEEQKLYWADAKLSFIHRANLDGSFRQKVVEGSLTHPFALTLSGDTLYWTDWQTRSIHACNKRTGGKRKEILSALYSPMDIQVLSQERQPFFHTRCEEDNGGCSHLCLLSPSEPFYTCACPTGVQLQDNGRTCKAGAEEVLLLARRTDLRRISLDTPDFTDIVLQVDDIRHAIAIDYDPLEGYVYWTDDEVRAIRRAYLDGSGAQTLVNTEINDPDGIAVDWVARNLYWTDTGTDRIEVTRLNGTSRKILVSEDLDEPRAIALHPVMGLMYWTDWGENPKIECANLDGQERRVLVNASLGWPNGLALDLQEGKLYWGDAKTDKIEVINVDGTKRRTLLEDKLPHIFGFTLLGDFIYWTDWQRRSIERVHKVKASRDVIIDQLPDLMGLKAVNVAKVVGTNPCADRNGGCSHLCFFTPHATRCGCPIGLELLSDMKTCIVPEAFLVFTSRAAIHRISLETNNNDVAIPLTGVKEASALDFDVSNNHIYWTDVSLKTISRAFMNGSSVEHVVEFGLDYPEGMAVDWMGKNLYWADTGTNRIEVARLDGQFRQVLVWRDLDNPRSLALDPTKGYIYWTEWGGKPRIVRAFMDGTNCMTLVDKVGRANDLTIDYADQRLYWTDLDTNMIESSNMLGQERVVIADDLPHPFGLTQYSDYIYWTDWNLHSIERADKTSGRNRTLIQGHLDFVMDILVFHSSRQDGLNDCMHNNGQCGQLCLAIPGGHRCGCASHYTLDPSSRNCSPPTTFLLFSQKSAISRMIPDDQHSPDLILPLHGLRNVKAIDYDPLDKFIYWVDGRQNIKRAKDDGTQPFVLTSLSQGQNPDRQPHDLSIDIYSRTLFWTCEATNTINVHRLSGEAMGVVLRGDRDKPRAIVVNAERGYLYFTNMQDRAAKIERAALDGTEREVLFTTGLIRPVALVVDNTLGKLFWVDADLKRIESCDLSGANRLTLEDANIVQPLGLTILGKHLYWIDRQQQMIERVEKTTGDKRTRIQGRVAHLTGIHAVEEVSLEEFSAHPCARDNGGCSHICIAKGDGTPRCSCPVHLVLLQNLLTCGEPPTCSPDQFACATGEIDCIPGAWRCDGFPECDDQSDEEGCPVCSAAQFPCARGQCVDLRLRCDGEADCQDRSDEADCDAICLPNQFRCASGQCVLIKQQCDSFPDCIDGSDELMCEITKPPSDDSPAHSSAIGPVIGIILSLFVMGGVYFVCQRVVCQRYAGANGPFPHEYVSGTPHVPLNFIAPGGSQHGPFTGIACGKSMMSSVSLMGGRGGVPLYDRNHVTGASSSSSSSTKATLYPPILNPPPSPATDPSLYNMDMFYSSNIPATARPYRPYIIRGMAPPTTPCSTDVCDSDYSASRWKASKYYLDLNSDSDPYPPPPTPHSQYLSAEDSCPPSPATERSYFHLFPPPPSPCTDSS

These are yes or no findings as the source states them, for the method shown. In cells and extracts the contact can be indirect. These calls come from enrichment with a bait or labelling near it, and not all partners need be listed.

The chains are these.
B1: CHERP (protein, UniProt Q8IWX8 1-916)
chain: MEMPLPPDDQELRNVIDKLAQFVARNGPEFEKMTMEKQKDNPKFSFLFGGEFYSYYKCKLALEQQQLICKQQTPELEPAATMPPLPQPPLAPAAPIPPAQGAPSMDELIQQSQWNLQQQEQHLLALRQEQVTAAVAHAVEQQMQKLLEETQLDMNEFDNLLQPIIDTCTKDAISAGKNWMFSNAKSPPHCELMAGHLRNRITADGAHFELRLHLIYLINDVLHHCQRKQARELLAALQKVVVPIYCTSFLAVEEDKQQKIARLLQLWEKNGYFDDSIIQQLQSPALGLGQYQATLINEYSSVVQPVQLAFQQQIQTLKTQHEEFVTSLAQQQQQQQQQQQQLQMPQMEAEVKATPPPPAPPPAPAPAPAIPPTTQPDDSKPPIQMPGSSEYEAPGGVQDPAAAGPRGPGPHDQIPPNKPPWFDQPHPVAPWGQQQPPEQPPYPHHQGGPPHCPPWNNSHEGMWGEQRGDPGWNGQRDAPWNNQPDAAWNSQFEGPWNSQHEQPPWGGGQREPPFRMQRPPHFRGPFPPHQQHPQFNQPPHPHNFNRFPPRFMQDDFPPRHPFERPPYPHRFDYPQGDFPAEMGPPHHHPGHRMPHPGINEHPPWAGPQHPDFGPPPHGFNGQPPHMRRQGPPHINHDDPSLVPNVPYFDLPAGLMAPLVKLEDHEYKPLDPKDIRLPPPMPPSERLLAAVEAFYSPPSHDRPRNSEGWEQNGLYEFFRAKMRARRRKGQEKRNSGPSRSRSRSKSRGRSSSRSNSRSSKSSGSYSRSRSRSCSRSYSRSRSRSRSRSRSSRSRSRSQSRSRSKSYSPGRRRRSRSRSPTPPSSAGLGSNSAPPIPDSRLGEENKGHQMLVKMGWSGSGGLGAKEQGIQDPIKGGDVRDKWDQYKGVGVALDDPYENYRRNKSYSFIARMKARDECK
B2: SLC25A6 (protein, UniProt P12236 1-298)
chain: MTEQAISFAKDFLAGGIAAAISKTAVAPIERVKLLLQVQHASKQIAADKQYKGIVDCIVRIPKEQGVLSFWRGNLANVIRYFPTQALNFAFKDKYKQIFLGGVDKHTQFWRYFAGNLASGGAAGATSLCFVYPLDFARTRLAADVGKSGTEREFRGLGDCLVKITKSDGIRGLYQGFSVSVQGIIIYRAAYFGVYDTAKGMLPDPKNTHIVVSWMIAQTVTAVAGVVSYPFDTVRRRMMMQSGRKGADIMYTGTVDCWRKIFRDEGGKAFFKGAWSNVLRGMGGAFVLVLYDELKKVI

This test addresses Alpha-enolase (ENO1) (human (endogenous in Raji)) (UniProt P06733). The test is described as follows: affinity purification with mass spectrometry; Raji cell lysates pre-cleared with Protein A/G beads, immunoprecipitated overnight at 4°C with anti-ENO1 antibody (anti-IgG as negative control); washes with low-salt (150 mM NaCl) and high-salt (500 mM NaCl) buffer, 50 mM Tris-HCl pH 7.4, 0.1% NP-40; trypsin digest, LC-MS/MS.
Turning to SYNE2 (from UniProt Q8WXH0 1-6885), the binding result is given as “binds”. As for PRMT5 (from UniProt O14744 1-637), the binding result is “binds”. The value for LRP5 (from UniProt O75197 32-1615) was “binds”. The value for B1 was “binds”; that for B2 was “binds”.
